Measured values taken from article PMC7809827.
These are yes or no findings as the source states them, for the method shown. Binding seen in cells or lysates may run through a third protein. Some entries that bind do so weakly or less than the wild type. One block for each molecule: values may come before it.

Protein sequences, listed by entry. Tags and fused reporters are not part of them.
UniProt P09382: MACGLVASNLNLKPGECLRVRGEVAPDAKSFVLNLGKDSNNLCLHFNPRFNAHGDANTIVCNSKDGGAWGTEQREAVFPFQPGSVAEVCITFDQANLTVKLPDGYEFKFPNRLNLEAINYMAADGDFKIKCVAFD

Molecular target: T1, zinc finger protein 804A (ZNF804A) (human) (UniProt Q7Z570)
T1 sequence: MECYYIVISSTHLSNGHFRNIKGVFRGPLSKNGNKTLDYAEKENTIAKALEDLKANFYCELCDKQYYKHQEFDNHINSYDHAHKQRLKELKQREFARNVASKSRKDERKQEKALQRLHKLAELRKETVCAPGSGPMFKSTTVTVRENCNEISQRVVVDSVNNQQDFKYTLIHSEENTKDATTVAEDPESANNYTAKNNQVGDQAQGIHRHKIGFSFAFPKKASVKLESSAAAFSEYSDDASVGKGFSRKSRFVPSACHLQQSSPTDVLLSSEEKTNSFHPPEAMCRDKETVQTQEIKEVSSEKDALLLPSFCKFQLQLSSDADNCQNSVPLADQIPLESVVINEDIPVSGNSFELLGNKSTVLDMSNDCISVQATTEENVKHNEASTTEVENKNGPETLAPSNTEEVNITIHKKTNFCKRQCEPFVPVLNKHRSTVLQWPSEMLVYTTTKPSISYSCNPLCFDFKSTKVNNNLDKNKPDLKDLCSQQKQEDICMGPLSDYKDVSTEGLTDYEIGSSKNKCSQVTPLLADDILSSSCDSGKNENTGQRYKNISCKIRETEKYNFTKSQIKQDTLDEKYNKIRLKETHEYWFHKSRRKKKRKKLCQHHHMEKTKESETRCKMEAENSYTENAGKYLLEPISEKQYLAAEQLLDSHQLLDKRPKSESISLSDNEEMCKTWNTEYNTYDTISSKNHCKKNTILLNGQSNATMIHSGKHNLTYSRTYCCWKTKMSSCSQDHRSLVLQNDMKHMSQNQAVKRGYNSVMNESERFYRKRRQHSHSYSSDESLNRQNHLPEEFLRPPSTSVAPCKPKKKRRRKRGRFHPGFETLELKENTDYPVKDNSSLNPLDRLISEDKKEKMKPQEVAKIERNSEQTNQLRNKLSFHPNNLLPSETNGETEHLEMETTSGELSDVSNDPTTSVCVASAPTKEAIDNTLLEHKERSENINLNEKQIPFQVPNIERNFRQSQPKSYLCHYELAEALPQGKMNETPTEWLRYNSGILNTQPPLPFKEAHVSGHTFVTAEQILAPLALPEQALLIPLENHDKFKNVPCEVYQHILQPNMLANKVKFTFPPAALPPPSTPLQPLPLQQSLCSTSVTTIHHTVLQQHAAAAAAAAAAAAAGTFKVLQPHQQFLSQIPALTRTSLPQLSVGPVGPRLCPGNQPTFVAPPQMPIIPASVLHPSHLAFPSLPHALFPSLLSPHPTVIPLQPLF
Test: co-IP; co-immunoprecipitation (Fig. 2a); cells, antibodies and conditions not told in the text shown

- binding: binds
Molecule: galectin 1 (LGALS1) (from UniProt P09382 1-135)

- binding: binds
B1: fasciculation and elongation protein zeta 1 (FEZ1) (protein, UniProt Q99689 1-392)
chain: MEAPLVSLDEEFEDLRPSCSEDPEEKPQCFYGSSPHHLEDPSLSELENFSSEIISFKSMEDLVNEFDEKLNVCFRNYNAKTENLAPVKNQLQIQEEEETLQDEEVWDALTDNYIPSLSEDWRDPNIEALNGNCSDTEIHEKEEEEFNEKSENDSGINEEPLLTADQVIEEIEEMMQNSPDPEEEEEVLEEEDGGETSSQADSVLLQEMQALTQTFNNNWSYEGLRHMSGSELTELLDQVEGAIRDFSEELVQQLARRDELEFEKEVKNSFITVLIEVQNKQKEQRELMKKRRKEKGLSLQSSRIEKGNQMPLKRFSMEGISNILQSGIRQTFGSSGTDKQYLNTVIPYEKKASPPSVEDLQMLTNILFAMKEDNEKVPTLLTDYILKVLCPT
